Measured values: PMC12040169 (PLOS Biology, 2025)
The list shows a part of the results.

system: T1, CTL2-GFP (C. trachomatis L2/434/Bu, GFP-expressing); design: species or system HeLa; Intracellular C. trachomatis growth in HeLa cells, bulk GFP fluorescence relative to DMSO; details: bulk GFP, single well; 28.5 h, 10 µM; inhibitor
T1 construct: L2/434/Bu, GFP-expressing

Compound | % of control remaining [%]
CN(CC1(C)COC1)C(=O)C(c1ccc(F)cc1)N(C)C (stereo not drawn) [CBK281722] | 98.9553
NC(=O)CCC(NC=O)C(=O)O (stereo not drawn) [CBK260967] | 116.035
N#C/C(=C\c1c[nH]nc1-c1ccccc1)c1nc(-c2cccc([N+](=O)[O-])c2)cs1 [CBK267252] | 143.863
CC(C)CN1C(=O)COC[C@@H]1[C@H](O)c1ccc(NC(=O)C2CCCCC2)cc1 [CBK289687] | 144.146
Cc1c(C(=O)C2=C(O)C(=O)N(Cc3cccnc3)C2c2ccncc2)cnn1-c1ccccc1 (stereo not drawn) [CBK233899] | 127.512
CCN1CCN(C(=O)c2ccc3ccccc3n2)CC1 [CBK200249] | 104.227
CCCCOc1ccc(Sc2nc(C)cc(C)n2)cc1 [CBK009219] | 107.121
Cc1cc(CN2CCN(C(=O)NCCc3ccccn3)CC2)on1 [CBK305637] | 131.924
CC(NC(=O)N1CCN(c2cc(C(F)(F)F)ccn2)CC1)c1ccccc1 (stereo not drawn) [CBK162350] | 142.364
O=C(CSc1nnc(-c2ccccc2O)n1-c1ccccc1)Nc1ccc(N2CCOCC2)cc1 [CBK267874] | 104.908
Oc1n[nH]c(-c2ccccc2Cl)c1Cc1c(Cl)cccc1Cl [CBK107935] | 125.392
Cc1nc(CN2CCCC(NCc3ccc4ccccc4c3)C2)no1 (stereo not drawn) [CBK305160] | 86.8434
c1cnc2[nH]c(C3CCCC3)c(CN3CCOCC3)c2c1 [CBK285337] | 129.693
Cc1cc(N2CCCC2=O)cc(C)c1S(N)(=O)=O [CBK288458] | 167.656
O=C(O)Cn1nnc(-c2ccncc2)n1 [CBK269884] | 116.183
COc1ccc(C(=O)OC(C)(C)C)c(-c2cncc(N3CCCCC3CCO)n2)c1 (stereo not drawn) [CBK037786] | 170.033
Cc1nnc(CSc2ncc(-c3ccc(Cl)cc3)n2Cc2ccccc2)o1 [CBK297154] | 125.901
CC(=O)N(C)c1nc(-c2ccccc2C)ccc1C(=O)Nc1cc(C)nn1C [CBK106357] | 150.284
COc1ccc(-n2ncc3c(N4CCN(C)CC4)ncnc32)cc1 [CBK265848] | 120.573
COc1ccc(NC(=O)C(=O)NCc2ccncc2)cc1 [CBK287723] | 136.317
Cn1nnnc1-c1cccc(NC(=O)c2ccc(Oc3ccccc3)cc2)c1 [CBK297872] | 45.4246
Cc1nn(CC(=O)NC2CCCCC2)c(=O)c2cc3ccsc3n12 [CBK284080] | 106.924
O=C(CSc1nnc(COc2ccccc2)o1)c1cccc([N+](=O)[O-])c1 [CBK267868] | 81.757
COc1ccc(CCNC(=O)N2CCC(C(=O)O)CC2)cc1OC [CBK161404] | 133.225
CN(C)CCN(Cc1ccccn1)c1ncccn1 [CBK020142] | 66.8053
O=C(NCc1cccnc1)N1CCN(CCc2ccccc2)CC1 [CBK158906] | 118.395

Sorted by formula weight (descending): 3 of the compounds above.
Compound | % of control remaining [%]
O=C(CSc1nnc(COc2ccccc2)o1)c1cccc([N+](=O)[O-])c1 [CBK267868] | 81.757
CCCCOc1ccc(Sc2nc(C)cc(C)n2)cc1 [CBK009219] | 107.121
c1cnc2[nH]c(C3CCCC3)c(CN3CCOCC3)c2c1 [CBK285337] | 129.693

Next records follow.

Compound | % of control remaining [%]
O=[N+]([O-])c1cccc(-c2ccc(OC3CCNCC3)cc2)c1 [CBK126465T] | 75.3216
Cc1nc2c(c(CCC(=O)O)n1)CCCC2 [CBK023157] | 132.601
CC1CCc2c(sc3ncnc(OCC(=O)N4CCNC4=O)c23)C1 (stereo not drawn) [CBK305775] | 114.862
COc1ccc(-c2nc3c(c(=S)[nH]2)CCCC3)cc1 [CBK020440] | 65.9215
CN(C)[C@@H]1CN(Cc2cccnc2)C[C@H]1c1cn(C)c2ccccc12 [CBK284875] | 88.91
COc1cccc2cc(C(=O)NCCCN3CCN(C)CC3)oc12 [CBK149788] | 113.15
Cc1n[nH]c(C)c1Sc1ccccc1/N=C/c1ccc(C(=O)O)cc1 [CBK262055] | 107.237
Cc1oc(C2CC2)cc1C(=O)N1CCn2c(nnc2C2CC2)C1 [CBK283687] | 121.801
Cc1cc(COc2cc(N3CCCN(Cc4ccc5c(c4)OCO5)CC3)ncn2)no1 [CBK083335T] | 164.076
CCOC(=O)CCCNC(=O)N1CCN(Cc2ccccc2)CC1 [CBK155664] | 122.276
CCOCCn1cnc2sc(C(=O)Nc3cccc(Cl)c3)c(C)c2c1=O [CBK071854] | 81.8928
CCn1cc(-c2cncn2CCOc2ccc(C)cc2)cn1 [CBK281623] | 130.827
CCN(CC)CCN(C(=O)Nc1ccc(C(N)=O)cc1)C(C)c1ccc(OC)c(OC)c1 (stereo not drawn) [CBK158962] | 88.3424
COc1ccc(C)cc1S(=O)(=O)N(C)CC(=O)Nc1cccc(C(C)=O)c1 [CBK268753] | 142.443
O=C(Cn1nnc(-c2ccccc2Cl)n1)N/N=C/c1cn(Cc2ccc(Cl)cc2)c2ccccc12 [CBK262333] | 85.6364
COCC(=O)NCc1cc2n(n1)CCN(Cc1cccs1)C2 [CBK307085] | 124.74
Cc1cc(C2CCCCCN2S(=O)(=O)c2ccc3[nH]c(=O)[nH]c(=O)c3c2)on1 (stereo not drawn) [CBK286405] | 128.122
COc1cc(-c2cc(C(=O)O)c3c(-c4ccc(C)cc4)n[nH]c3n2)ccc1O [CBK287268] | 159.608
NC(=O)C1CCN(Cc2cc3c(cc2[N+](=O)[O-])OCO3)CC1 [CBK261885] | 99.3439
Cc1ccc(C(=O)NC(CC(C)C)c2nnc3n2CCNCC3)c(F)c1 (stereo not drawn) [CBK306817] | 144.813
CCNC(=O)O[C@@H]1CO[C@H]2[C@@H]1OC[C@@H]2NC(=O)c1ccc(C)cc1 [CBK289472] | 114.424
Cc1cn([C@H]2C[C@@H](O)[C@@H](CI)O2)c(=O)[nH]c1=O [CBK201197] | 160.055
COCC(C)NCc1cc(-c2ccc(Cl)cc2)c[nH]c1=O (stereo not drawn) [CBK284726] | 139.926
CC(C)(C)C(=O)NCCn1nc(-c2cccs2)oc1=O [CBK282344] | 105.306
Cc1noc(C)c1CC(=O)N(C)CCN1CCCCC1 [CBK281855] | 129.266
